The list shows only some results of the screen, not a fair sample: it gathers tests that were run many times, whatever their T/C, doses with no T/C, and many T/C values between a quarter and a half above the control. Other doses and runs of a compound stand elsewhere. T/C is the treated group as % of the vehicle group. Some entries give survivors of the animals treated and no T/C: the source files T/C as zero there, which appears to mark a toxic dose or a test without result, not a measured value. Some doses without a T/C left all or most animals alive at the check, yet need not have been tolerated: survival well below the control is almost never listed, so the zero probably covers shortened survival too. Counts of survivors are from the toxicity check (mostly the fifth day) where no day follows; animals may have died later. Schedule codes are those of the source, read here as Q, the interval in days (D) or hours (H), X, the number of doses. Some doses were run more than once; the values are given in rising order. For survival time, the PubChem record calls one and a half times the control and up active, and a quarter to a half above the control has no call in these data; cut-offs in other NCI protocols can differ. Some T/C values carry the count of animals alive at the toxicity check (mostly the fifth day); without a count, all were alive then. Peptide text beside a SMILES is read from it. * marks the point of attachment. Boc = CC(C)(C)OC(=O)*

The test system of this experiment is BDF1 mice, B16 melanoma ip, median survival T/C. The experiment in a line: NCI In Vivo Anticancer Drug Screen. Data for tumor model B16 Melanoma (intraperitoneal) in B6D2F1 (BDF1) mice. The note with it: T/C endpoint: median survival time, higher T/C = longer survival. The procedure, abridged:
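Antitumor activity is assessed in mice bearing a transplanted tumor, with survival or tumor size compared against vehicle-dosed controls and expressed as T/C.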

The mark [1] stands for this setting: dose: 200.0 mg/kg/injection, schedule: Q01DX009 (ip), vehicle: saline.
Where [2] appears, read: dose: 400.0 mg/kg/injection, schedule: Q01DX009 (ip), vehicle: saline.
Setting [3] is: dose: 100.0 mg/kg/injection, schedule: Q01DX009 (ip), vehicle: Klucel (hydroxypropylcellulose) (HPC).
The mark [4] stands for this setting: dose: 200.0 mg/kg/injection, schedule: Q01DX009 (ip), vehicle: Klucel (hydroxypropylcellulose) (HPC).
[5] abbreviates: dose: 400.0 mg/kg/injection, schedule: Q01DX009 (ip), vehicle: Klucel (hydroxypropylcellulose) (HPC).
Where [6] appears, read: dose: 100.0 mg/kg/injection, schedule: Q01DX009 (ip), vehicle: saline.
Where [7] appears, read: dose: 100.0 mg/kg/injection, schedule: Q01DX009 (ip), vehicle: saline with Tween-80.
[8] abbreviates: dose: 200.0 mg/kg/injection, schedule: Q01DX009 (ip), vehicle: saline with Tween-80.
Where [9] appears, read: dose: 400.0 mg/kg/injection, schedule: Q01DX009 (ip), vehicle: saline with Tween-80.

As to `CCCCCCCCCCCCCCCCCCNC(=O)Nc1ccccc1[N+](=O)[O-]`, the survivor count is, setting by setting: (dose: 0.37 mg/kg/injection, schedule: Q01DX009 (ip), vehicle: DMSO) 10 of 10; (dose: 0.75 mg/kg/injection, schedule: Q01DX009 (ip), vehicle: DMSO) 9 of 9; (dose: 1.5 mg/kg/injection, schedule: Q01DX009 (ip), vehicle: DMSO) 8 of 9 and 10 of 10; (dose: 3.0 mg/kg/injection, schedule: Q01DX009 (ip), vehicle: DMSO) 10 of 10; (dose: 6.0 mg/kg/injection, schedule: Q01DX009 (ip), vehicle: DMSO) 9 of 10; (dose: 12.0 mg/kg/injection, schedule: Q01DX009 (ip), vehicle: DMSO) 10 of 10. Moreover, the survivor count is listed as 10 of 10 (dose: 100.0 mg/kg/injection, schedule: Q04DX003 (ip), vehicle: DMSO); 10 of 10 (dose: 200.0 mg/kg/injection, schedule: Q04DX003 (ip), vehicle: DMSO); 7 of 10 (dose: 400.0 mg/kg/injection, schedule: Q04DX003 (ip), vehicle: DMSO).
Take `CC(C)(C)OC(=O)NCC(=O)NCC(=O)O` (Boc-Gly-Gly-OH): the survivor count reads like this: under setting [1], 10 of 10; under setting [2], 10 of 10.
On to `Nc1cc2c(c[n+](CCCCCCCC[n+]3cc4c5ccccc5c(N)cc4c4ccccc43)c3ccccc23)c2ccccc12`, for which the T/C runs as follows: (dose: 1.56 mg/kg/injection, schedule: Q01DX009 (ip), vehicle: distilled water + Tween-80) 140 and 144 % of control [9 of 10 alive]; (dose: 3.12 mg/kg/injection, schedule: Q01DX009 (ip), vehicle: distilled water + Tween-80) 135 % of control; (dose: 5.0 mg/kg/injection, schedule: Q01DX009 (ip), vehicle: saline with Tween-80) 136 % of control; (dose: 6.25 mg/kg/injection, schedule: Q04DX003 (ip), vehicle: distilled water + Tween-80) 126 % of control; (dose: 12.5 mg/kg/injection, schedule: Q04DX003 (ip), vehicle: distilled water + Tween-80) 135 % of control [8 of 10 alive]. Also, the survivor count by setting is: (dose: 20.0 mg/kg/injection, schedule: Q01DX009 (ip), vehicle: distilled water + Tween-80) 10 of 10; (dose: 25.0 mg/kg/injection, schedule: Q01DX009 (ip), vehicle: distilled water + Tween-80) 10 of 10; (dose: 50.0 mg/kg/injection, schedule: Q04DX003 (ip), vehicle: distilled water + Tween-80) 6 of 10.
As to `Cc1c(Cl)cccc1NC(=O)Nc1ccc(Cl)c(Cl)c1`, the survivor count under setting [3] is 10 of 10, the survivor count under setting [4] is recorded as 10 of 10 and the survivor count under setting [5] was 10 of 10.
For `Cc1[nH]ccc2c(C)c3nc4ccccc4c3cc12`, the T/C was 140 % of control (dose: 6.25 mg/kg/injection, schedule: Q01DX009 (ip), vehicle: Klucel (hydroxypropylcellulose) (HPC)); 148 % of control (dose: 12.5 mg/kg/injection, schedule: Q01DX009 (ip), vehicle: Klucel (hydroxypropylcellulose) (HPC)); 148 % of control (dose: 50.0 mg/kg/injection, schedule: Q01DX009 (ip), vehicle: Klucel (hydroxypropylcellulose) (HPC)).
For `Clc1ccc2c(c1)/C(=C/c1ccc3c(c1)OCO3)c1cc(Cl)cc(Cl)c1-2`, the survivor count is on record as 6 of 6 (dose: 50.0 mg/kg/injection, schedule: Q01DX009 (ip), vehicle: saline); 6 of 6 under setting [6]; 6 of 6 under setting [1]; 6 of 6 under setting [2].
For `COc1ccc(N=NN(C(C)=O)c2ccccc2)cc1`, the survivor count under setting [5] is reported as 9 of 10.
As to `O=C(Nc1ccc2c(c1)Cc1cc(Br)ccc1-2)C(F)(F)F`, the survivor count (dose: 200.0 mg/kg/injection, schedule: Q04DX003 (ip), vehicle: saline with Tween-80) is recorded as 10 of 10.
Regarding `O=NN(CCBr)C(=O)NCCBr`, the T/C by setting is: (dose: 100.0 mg/kg/injection, schedule: Q01DX009 (ip), vehicle: gum acacia) 127 % of control; (dose: 150.0 mg/kg/injection, schedule: Q01DX009 (ip), vehicle: gum acacia) 135 % of control. Where the note is “dose: 200.0 mg/kg/injection, schedule: Q01DX009 (ip), vehicle: gum acacia”, the survivor count is listed as 10 of 10.
Consider `C=CCOc1ccccc1Cl`, for which the T/C (dose: 100.0 mg/kg/injection, schedule: Q04DX003 (ip), vehicle: Klucel (hydroxypropylcellulose) (HPC)) was 125 % of control.
Consider `O=C1N[C@H]2[C@H](CS[C@H]2CCCCC(=O)N(CCP(c2ccccc2)c2ccccc2)CCP(c2ccccc2)c2ccccc2)N1`, for which the T/C under setting [3] was 136 % of control.
As for `ClCCN(CCCl)c1ccc(/C=C/c2ccccc2)cc1`, under setting [4], the survivor count is recorded as 8 of 8.
Consider `O=C1C(NCC(O)CO)=C(N2CC2)C(=O)C(NCC(O)CO)=C1N1CC1` (stereo not given), for which the survivor count (dose: 0.5 mg/kg/injection, schedule: Q01DX009 (ip), vehicle: saline) is recorded as 9 of 10.
For `Cc1cccc(N2CCN(CCC#N)CC2)c1`, the survivor count under setting [7] is 10 of 10.
`Cc1c2cc[n+](C)c(C)c2cc2c1[nH]c1ccccc12`: the survivor count by setting is: (dose: 80.0 mg/kg/injection, schedule: Q04DX003 (ip), vehicle: water) 9 of 10; (dose: 160.0 mg/kg/injection, schedule: Q04DX003 (ip), vehicle: water) 2 of 10.
Take `Cc1c(Cl)cccc1NC(=O)NCCC(C)C`: the survivor count is 10 of 10 under setting [7], 10 of 10 under setting [8] and 9 of 10 under setting [9].
For the molecule `CN1CCN=C(c2ccccc2)c2cc(Cl)ccc21`, the survivor count under setting [1] is reported as 0 of 10 and the survivor count under setting [2] is recorded as 0 of 10.
As for `CC(C)c1ccc(O)c(O)c1`, the survivor count is recorded as 10 of 10 (dose: 50.0 mg/kg/injection, schedule: Q01DX009 (ip), vehicle: saline with Tween-80); 10 of 10 under setting [7]; 10 of 10 under setting [6]; 2 of 10 under setting [8].
Regarding `CCN(CC)CCCCNc1ccc(NCCCCN(CC)CC)c2c1C(=O)c1ccccc1C2=O`, the survivor count runs as follows: under setting [7], 5 of 10; under setting [8], 0 of 10.
Regarding `CC(C)c1cccc(C(C)C)c1OC(=O)Nc1ccccc1Cl`, under “dose: 400.0 mg/kg/injection, schedule: Q04DX003 (ip), vehicle: Klucel (hydroxypropylcellulose) (HPC)”, the survivor count was 6 of 10.
Take `Cc1ccc(C)c(NC(=O)Nc2ccccc2Cl)c1`: the survivor count was 10 of 10 (dose: 200.0 mg/kg/injection, schedule: Q04DX003 (ip), vehicle: gum acacia) and 10 of 10 (dose: 400.0 mg/kg/injection, schedule: Q04DX003 (ip), vehicle: gum acacia).
Take `CC(=O)C(Cl)C(=O)c1c(C)[nH]n(-c2ccccc2)c1=O` (stereo not given): the survivor count is recorded as 8 of 10 under setting [3], 6 of 10 under setting [4] and 0 of 10 under setting [5].
As to `COc1cc2c(cc1O)N=C[C@@H]1CCC(O)N1C2=O` (mixture of isomers), the survivor count reads like this: (dose: 8.0 mg/kg/injection, schedule: Q01DX009 (ip), vehicle: saline) 8 of 10; (dose: 16.0 mg/kg/injection, schedule: Q01DX009 (ip), vehicle: saline) 0 of 10; (dose: 32.0 mg/kg/injection, schedule: Q01DX009 (ip), vehicle: saline) 0 of 10.
Take `CC(O)c1cc(Cl)ccc1Cl` (stereo not given): under “dose: 400.0 mg/kg/injection, schedule: Q04DX003 (ip), vehicle: saline with Tween-80”, the survivor count is given as 9 of 10.
As for `Cc1ccc([N+](=O)[O-])c2ccccc12`, the survivor count under setting [9] is reported as 10 of 10.
Turning to `CCN(CCCCO)CCc1c[nH]c2ccc(OC)cc12`, for the setting “dose: 150.0 mg/kg/injection, schedule: Q01DX009 (ip), vehicle: saline”, the survivor count is 4 of 10.
As for `COCCCN1CCN(c2ccccc2OC)CC1`, the survivor count under setting [6] is reported as 3 of 10.

Source of the values: PubChem BioAssay AID192 (DTP/NCI, 2004).
